Drawing on publication PMC12935370, this text covers binding for 1 molecule.

These are yes or no findings as the source states them, for the method shown. In cells and extracts the contact can be indirect. Binding can be weak; no strength is given.

This assay concerns the target GST-tagged MAGI-2. Briefly: pull-down; GST-tagged MAGI-2 with glomerular lysates from mouse kidneys; only the target purified.

B1: Synpo (synaptopodin), endogenous in mouse glomeruli (protein, UniProt Q8CC35 1-929)
chain: MLGAHFPPPPLGASEGRAAPCTFQIPDGSYRCLALEAEESSSEDGLQGEVRLVDLEEEGTSQSRANHGTPPLSRAPAIIQPSSCHREARGGFQRSDRPSHDWDVVQARKVMTASGSSSPVPRVAQKPALGRSTSFTENDLKEAKARSQQIAAQLTTPPSSNSRGVQLFNRRRQRVNEFTLESRGQRSPKLNQEALQTGRPLSPIGHAPGPSVKPTSPSKPGSPKHPSPQSPSRGVAGHIMEGYSEEASLLRHLEKVASEEEEVPLVVYLKENAALLTANGLHLSQSRETQQSSPNPPDTEVPSPAADINQNPSSPNATLTTLASSSHHSQPTADINQNPPAAITPVPQNSSQAQCSPNGTLDSKPGTLCADDGQSPVPAEEVRSSILLIDKVSAPPSAASTFSREATPLSSSGPPAADLMSSSLLIDMQPSTLVAPAEQEVPGHVAVTTPTKVYSEVHLTLAKPASVVNRTARPFGIQSPGTSQIEQSPMMGRRQFGEKAWAPPASSMADRSPQPQRHIMSRSPMVERRLLGQRSPVLERRPLGNFTPPPTYAETLSTAPVASRVRSPPSYSTLYPSSDPKPSHLKGQVAPANKTGILEESMARRGSRKSMFTFVEKPKVTPNPDLLDLVQTADEKRRQRDHGEVGMEEEPFALGAEASNFQQEPIARDRASPAAAEEAVPEWASCLKSPRIQAKPKPKPNQNLSEASGKGAELYARRQSRMEKYVIESSGHAELARCPSPTMSLPSSWKYTTNAPGGFRVASLSPARTPPASLYHGYLPENGVLRPEPTKQQPYQMRPSLYALSPVKEPAKASSRATSSRTPSRTVSPRAASPAKPSSLDLVPNLPRAGLPPSPALPRPSRSSPGLYTAPVQDSLQPTAVSPTYSSDISPVSPSRAWSPRAKQAPRPSFSTRNAGIEAQVWKPSFCFK
Turning to B1, the binding result is “binds”.
